Data from PubChem BioAssay AID2685 (National Center for Advancing Translational Sciences (NCATS), 2010).
The campaign covered roughly 320,000 compounds. About 2,100 (0.66%) were called active. Inconclusive results, whose numbers are uncertain, are shown with a selection of clear calls. Calls follow the shape of the dose curve; as a rule, active = well fitted inhibition curve with a large enough effect in the signal ratio, with a control signal flat (not every such curve was filed as active); inconclusive = small, poorly fitted or top-dose-only effect, or effect the other way, or a change in a side signal; inactive = flat fitted curve, though single readings scatter; the % refers to the signal ratio. Where the call is inconclusive, the potency comes from a doubtful curve fit.
% is scaled to controls: 0 for no effect and ±100 for the full control effect; potency is read from the fitted curve at half-maximal effect.

Assay: qHTS Assay for Lipid Storage Modulators in Drosophila S3 Cells
Settings: BODIPY lipid droplet fluorescence, 18-24 h, cells fed with added oleic acid; lipid storage change, negative = inhibition: at 46.1 µM (top of the series) unless noted
Method in brief: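 Drosophila S3 cells got compounds at several concentrations plus oleic acid (400 uM solution). Laser-scanning cytometry with 488 nm excitation read lipid droplets at 500-530 nm and cells at 575-640 nm. Percent activity was relative to 20 uM Triacsin C.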
With `O=C(NS(=O)(=O)Oc1cccc(F)c1)OC[C@@H]1CCCN2CCCCC12` (stereo not given in full) the lipid storage change, negative = inhibition was inconclusive: 266%. With `CCOc1ccc(N(CC(=O)NC2CCCC2)C(=O)CCC(=O)Nc2nccs2)cc1` the lipid storage change, negative = inhibition was inconclusive: 32.8%. With `CC1CCCN(CCCN2C(=O)C3C(C(=O)Nc4ccc(Cl)cc4)C4C=CC3(O4)C2C(=O)NC2CCCCC2)C1` (stereo not given) the Potency was inconclusive: 16.4 µM [falling, partial curve]. For `COc1cccc(Nc2nc(-c3ccccc3)nc3ccccc23)c1`, the lipid storage change, negative = inhibition was inconclusive: 14.8%. With `Cc1cc(-n2c(C)cc(C(=O)CSc3[nH]c(=O)cc(C(F)(F)F)c3C#N)c2C)no1` the lipid storage change, negative = inhibition was inconclusive: -31.2%. With `CCOC(=O)CC(NC(=O)c1cccs1)c1ccc(OCC)cc1` (stereo not given) the lipid storage change, negative = inhibition was inconclusive: -19.4%. In the case of `Cc1nnc(SCC(=O)Nc2nccs2)n1C(C)C`, the Potency is reported as inconclusive: 6.51 µM [activator, single point]. In the case of `O=C(c1ccc(OC2CCN(CCc3ccccc3)CC2)cc1)N1CCCC(CO)C1` (stereo not given), the lipid storage change, negative = inhibition is reported as “inactive”. With `CC(C)(C)NC(=O)C(c1ccc(Cl)cc1)N(Cc1ccco1)C(=O)CCl` (stereo not given) the lipid storage change, negative = inhibition was inconclusive: 21.2%. For `Cc1ccc(S(=O)(=O)N(C)C)cc1NC(=O)C(C)NC(C)c1cccs1` (stereo not given), the Potency was inconclusive: 25.9 µM [falling, single point]. In the case of `CSCCC(=O)N1CCCC(CNC(=O)c2ccccc2Cl)C1` (stereo not given), the Potency is reported as inconclusive: 2.91 µM [falling, partial curve, poor fit]. With `CC(=O)c1ccc(NC(=O)CSc2nnc(C3CC3)n2C)cc1` the Potency was active: 1.84 µM. In the case of `Cc1ccc(C)c(N2CCN(C(=O)CCn3c(=S)[nH]c4cc5c(cc4c3=O)OCO5)CC2)c1`, the lipid storage change, negative = inhibition is reported as inconclusive: 24.7%. With `Cc1ccc2c(cnn2C(=O)CCCC(=O)NCc2ccc(Cl)cc2)c1` the lipid storage change, negative = inhibition was inconclusive: -16.3%. With `CC(=O)Oc1cccc(/C=N\NC(=O)C(=O)N/N=C/c2cccc(OC(C)=O)c2)c1` the Potency was inconclusive: 20.6 µM [falling, single point]. With `Cc1cc(O)c(C(C)C)cc1NC(=O)c1ccccc1Cl` the lipid storage change, negative = inhibition was inconclusive: -32.1%. With `CCOC(=O)N1CCC(NC(=O)CCc2nc(-c3ccc(C)cc3)no2)CC1` the lipid storage change, negative = inhibition was inconclusive: 45%. In the case of `Cc1c(NC(=O)c2c(NC(=O)CNC3CC3)sc3c2CCCC3)c(=O)n(-c2ccccc2)n1C`, the lipid storage change, negative = inhibition is reported as inconclusive: 16.9%. In the case of `CC(=O)Nc1ccc(S(=O)(=O)Nc2ccc3c(c2)OCCO3)cc1`, the lipid storage change, negative = inhibition is reported as inconclusive: 14.1%. For `Cc1cccc(N(CC(=O)NC(C)(C)C)C(=O)CS(=O)CC(=O)Nc2ccc3c(c2)OCO3)c1` (stereo not given), the lipid storage change, negative = inhibition was inconclusive: 1.67%. For `COc1ccc(OC)c(NC(=O)C2CCCNC2=O)c1` (stereo not given), the Potency was inconclusive: 6.51 µM [rising, partial curve]. In the case of `Cn1cc(CNC(=O)C2c3ccccc3Oc3ccccc32)cn1`, the lipid storage change, negative = inhibition is reported as inconclusive: -13.9%. With `Cc1ccc(C(=O)c2oc3ccccc3c2NC(=O)c2cc(-c3cc(C)ccc3O)n[nH]2)cc1` the Potency was inconclusive: 18.4 µM [falling, single point]. For `CC(C)C[C@H](NC(=O)NCCC1=CCCCC1)C(=O)O`, the lipid storage change, negative = inhibition was inconclusive: 19.7%. In the case of `C/C(=N\Nc1ncc(Cl)cc1Cl)c1cccs1`, the lipid storage change, negative = inhibition is reported as inconclusive: -42.5% [cytotoxic]. In the case of `CCOC(=O)/C=c1\s/c(=C(\C#N)C(=O)NC)n(-c2ccccc2)c1=O`, the lipid storage change, negative = inhibition is reported as inconclusive: 26.5%. With `COC(=O)c1ccc(OCc2nc(N)nc(N3CCOCC3)n2)cc1` the Potency was inconclusive: 2.06 µM [activator, partial curve]. For `COCCNC(=O)c1ccc(-n2c(SCc3cc(F)ccc3F)nc3ccccc3c2=O)cc1`, the Potency was inconclusive: 29.1 µM [cytotoxic, single point]. For `NS(=O)(=O)c1ccc(O)c(NC(=O)c2ccc([N+](=O)[O-])o2)c1`, the Potency was inconclusive: 0.517 µM [falling, single point]. With `CCOc1ncccc1C(=O)Nc1ccc(C)cn1` the Potency was inconclusive: 18.4 µM [activator, single point]. In the case of `CC1(C)OC(=O)N(CC(=O)Nc2ccccc2)C1(C)O` (stereo not given), the lipid storage change, negative = inhibition is reported as inconclusive: 64.5%. With `CC(C)[C@@H](C(=O)NC1CCN(Cc2ccccc2)CC1)N1C(=O)N2CCc3c([nH]c4ccccc34)[C@@]2(C)C1=O` the lipid storage change, negative = inhibition was inconclusive: -25.1%. In the case of `O=C(O)Cc1c(-c2ccccc2)c2cc(Cl)ccc2[nH]c1=O`, the lipid storage change, negative = inhibition is reported as inconclusive: 22%. In the case of `NC(=O)C1CCN(C(=O)C2(NC(=O)Nc3cccc(F)c3)CCCCC2)CC1`, the lipid storage change, negative = inhibition is reported as inconclusive: -10.9%. With `COc1ccc(Cc2nnc(NC(=O)Nc3ccc(F)cc3)s2)cc1` the Potency was inconclusive: 13 µM [activator, partial curve]. For `Oc1ccccc1-c1cc(-c2ccco2)[nH]n1`, the Potency was inconclusive: 23.1 µM [activator, single point]. In the case of `COC(=O)CSc1nnc(COc2ccc3ccccc3c2)o1`, the Potency is reported as inconclusive: 29.1 µM [activator, partial curve]. With `CCCCC[C@H]1CN(Cc2ccccc2)C(=O)[C@@H]1CC(=O)NCc1ccc(OC)cc1` the lipid storage change, negative = inhibition was inconclusive: -93.8%. With `Cc1nn(C)cc1S(=O)(=O)N1CCCC(C(=O)O)C1` (stereo not given) the lipid storage change, negative = inhibition was inconclusive: 3.36%. With `COCCCn1cnc2oc3nc4ccccc4nc3c2c1=O` the lipid storage change, negative = inhibition was inconclusive: 22.9%. In the case of `CN(C)c1ccc(NC(=O)Oc2ccccc2)cc1`, the lipid storage change, negative = inhibition is reported as inconclusive: 103%. With `COC(=O)Cn1cnc2c(nnn2-c2ccc(C)cc2)c1=O` the lipid storage change, negative = inhibition was inconclusive: 31.2%. In the case of `Cc1ccc(NC(=O)CN2C(=O)NC3(CCCc4ccccc43)C2=O)cc1S(=O)(=O)N1CCOCC1` (stereo not given), the lipid storage change, negative = inhibition is reported as inconclusive: -15.3% [at 9.22 µM]. For `COc1ccccc1-c1cn(S(=O)(=O)c2ccc(F)cc2)nc1N`, the Potency was inconclusive: 0.731 µM [activator, full curve]. With `CCCCOc1c(Cl)cc(C(=O)N(C)CC(=O)Nc2ccc(N3CCOCC3)cc2)cc1OCC` the Potency was inconclusive: 0.366 µM [activator, partial curve]. With `Cc1ccc(NC(=O)N2CCN(S(=O)(=O)c3ccccc3)CC2)cc1` the lipid storage change, negative = inhibition was inconclusive: 27.1%. For `CC(=O)Nc1ccc(Nc2ncc([N+](=O)[O-])c(Nc3ccc(NC(C)=O)cc3)n2)cc1`, the lipid storage change, negative = inhibition was inconclusive: 45.7%. In the case of `COc1ccc2c(=O)c3c(=O)n(Cc4ccco4)c(-c4ccccc4)nc3oc2c1`, the Potency is reported as inconclusive: 2.31 µM [activator, full curve]. With `COc1ccccc1OCc1cc(C(=O)N2CCCC(OCc3cccnc3)C2)no1` (stereo not given) the lipid storage change, negative = inhibition was “inactive”. In the case of `NNC(=O)c1csc(COc2cc(Cl)cc(Cl)c2)n1`, the lipid storage change, negative = inhibition is reported as inconclusive: 15.8%. For `Cc1ccc(N)c(C(O)(C(F)(F)F)C(F)(F)F)c1`, the lipid storage change, negative = inhibition was inconclusive: 67.9%. With `Cc1ccc(Cl)cc1N1CCN(C(=O)c2noc(C(C)C)c2[N+](=O)[O-])CC1` the lipid storage change, negative = inhibition was inconclusive: -18.4%. In the case of `COCCN(C(=O)CSc1nnc(-c2ccc(Cl)cc2)o1)c1c(N)n(CC(C)C)c(=O)[nH]c1=O`, the lipid storage change, negative = inhibition is reported as inconclusive: 1.03%. In the case of `CN(C)CCCNC(=O)c1ccc(CN(c2ccccc2)S(C)(=O)=O)cc1`, the lipid storage change, negative = inhibition is reported as inconclusive: 23.1%. In the case of `CCC(CC)NC(=O)c1ccc2c(c1)OCCO2`, the Potency is reported as inconclusive: 29.1 µM [falling, single point]. For `COc1cccc(C(=O)N/N=C(/CCC(=O)O)c2ccccc2)c1`, the Potency was inconclusive: 8.2 µM [activator, partial curve, poor fit]. For `COc1cc(C(=O)NCCNC(=O)c2ccc(C)nc2)cc(OC)c1OC`, the lipid storage change, negative = inhibition was inconclusive: 85.4%. In the case of `Cc1cc(C)c(C(=O)CSc2nnc(-c3cccnc3)n2C)c(C)c1`, the Potency is reported as inconclusive: 1.3 µM [rising, full curve]. For `Cc1cccc(N2CC(C(=O)Nc3ccc(S(=O)(=O)N4CCOCC4)cc3)CC2=O)c1C` (stereo not given), the lipid storage change, negative = inhibition was inconclusive: -57.1%. In the case of `Cc1sc(NC(=O)c2ccccc2)c(C(c2ccc(Cl)cc2)N2CCN(CCO)CC2)c1C` (stereo not given), the Potency is reported as inconclusive: 32.6 µM [falling, single point]. With `Cc1c([N+](=O)[O-])cc(C(=O)NCc2ccc(F)cc2)cc1[N+](=O)[O-]` the Potency was inconclusive: 0.58 µM [activator, full curve]. In the case of `Nc1nonc1-n1nnc(C(=O)N/N=C/c2ccncc2)c1CSc1ccccc1`, the Potency is reported as inconclusive: 18.4 µM [falling, single point]. For `C=CCC(=O)OCC(=O)Nc1ccc(Cl)cn1`, the lipid storage change, negative = inhibition was inconclusive: -5.39%. For `CC(NC(=O)COC(=O)c1cc(Cl)nc(Cl)c1)c1ccccc1` (stereo not given), the lipid storage change, negative = inhibition was inconclusive: 19.7%. For `COc1ccc(C(=O)N/C(=C/c2ccco2)C(=O)N2CCCCCC2)cc1`, the Potency was inconclusive: 6.51 µM [falling, single point]. In the case of `COc1ccc(CNCC(=O)Nc2cc(OC)cc(OC)c2)cc1`, the lipid storage change, negative = inhibition is reported as inconclusive: 51.7%. For `CCN(CCCCCN(C)C)Cc1cc2ccccc2o1`, the lipid storage change, negative = inhibition was inconclusive: 2.02%. With `Cc1ccc(C2=NN(CCC#N)C(=O)CO2)cc1` the lipid storage change, negative = inhibition was inconclusive: 13%. In the case of `CCN(C(=O)CCc1nnc2ccc(NCc3ccco3)nn12)c1ccccc1`, the lipid storage change, negative = inhibition is reported as inconclusive: 20.9%. In the case of `Cc1ccc(S(=O)(=O)NC(=NCc2ccccc2)c2ccc(F)cc2)cc1`, the lipid storage change, negative = inhibition is reported as inconclusive: 9.23%. For `O=C(COC(=O)CNS(=O)(=O)/C=C/c1ccccc1)Nc1cccc2ccccc12`, the lipid storage change, negative = inhibition was inconclusive: 22.5%. In the case of `CCCc1ccc2oc(C(=O)NCCCN3CCOCC3)c(C)c2c1`, the Potency is reported as inconclusive: 29.1 µM [rising, single point]. With `Fc1ccc(C(c2nnnn2C2CCCC2)N2CCc3ccccc32)cc1` (stereo not given) the lipid storage change, negative = inhibition was inconclusive: -14.5%. In the case of `C=C(C)COc1ccc(-c2nc(N)ncc2Oc2ccccc2OC)c(O)c1`, the lipid storage change, negative = inhibition is reported as inconclusive: 32.4%. In the case of `COC(=O)c1[nH]c2ccc(C)cc2c1NC(=O)CCN1CCN(Cc2ccc3c(c2)OCO3)CC1`, the lipid storage change, negative = inhibition is reported as inconclusive: 27.1%.
